From publication PMC7596556
No constants are given. Whether binding was seen depends on the method and setting. For some assays here: In cells and extracts the contact can be indirect. Some results given as binding are weak or reduced against the parent protein; the word gives no strength. For some assays here: Where a sequence is shown, tags or fusion partners need not be part of it.

Chains of the proteins cited; added tags and fusions are not shown. Lines headed by an entry give the natural chain unless they say otherwise; changes in a name come on top.
UniProt P52294: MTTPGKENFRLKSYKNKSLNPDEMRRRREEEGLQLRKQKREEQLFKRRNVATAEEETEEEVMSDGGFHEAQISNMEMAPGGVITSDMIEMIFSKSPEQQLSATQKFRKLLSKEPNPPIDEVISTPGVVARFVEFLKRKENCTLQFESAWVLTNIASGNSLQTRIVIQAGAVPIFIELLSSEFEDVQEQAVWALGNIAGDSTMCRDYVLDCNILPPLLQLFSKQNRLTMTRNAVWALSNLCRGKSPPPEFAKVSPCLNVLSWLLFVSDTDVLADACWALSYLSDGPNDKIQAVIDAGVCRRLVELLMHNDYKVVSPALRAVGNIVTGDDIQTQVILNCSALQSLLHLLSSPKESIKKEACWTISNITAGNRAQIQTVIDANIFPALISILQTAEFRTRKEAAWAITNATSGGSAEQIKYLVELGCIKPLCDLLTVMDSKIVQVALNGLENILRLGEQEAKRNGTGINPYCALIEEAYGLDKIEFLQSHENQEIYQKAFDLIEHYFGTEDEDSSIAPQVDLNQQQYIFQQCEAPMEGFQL
UniProt O00629: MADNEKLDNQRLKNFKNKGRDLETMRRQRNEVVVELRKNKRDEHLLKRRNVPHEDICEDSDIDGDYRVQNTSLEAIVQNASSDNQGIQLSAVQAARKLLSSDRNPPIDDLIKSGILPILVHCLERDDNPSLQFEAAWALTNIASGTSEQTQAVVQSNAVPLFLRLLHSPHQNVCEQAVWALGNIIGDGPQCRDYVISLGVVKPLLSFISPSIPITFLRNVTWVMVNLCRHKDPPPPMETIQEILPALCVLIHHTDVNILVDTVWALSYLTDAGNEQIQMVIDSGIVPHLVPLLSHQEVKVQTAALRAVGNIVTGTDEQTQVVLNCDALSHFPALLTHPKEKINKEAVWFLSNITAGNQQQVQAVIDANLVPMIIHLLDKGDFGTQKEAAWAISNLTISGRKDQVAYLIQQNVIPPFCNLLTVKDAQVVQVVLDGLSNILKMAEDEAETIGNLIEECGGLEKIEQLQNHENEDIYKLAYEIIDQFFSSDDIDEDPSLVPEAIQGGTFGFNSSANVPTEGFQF
UniProt Q14974: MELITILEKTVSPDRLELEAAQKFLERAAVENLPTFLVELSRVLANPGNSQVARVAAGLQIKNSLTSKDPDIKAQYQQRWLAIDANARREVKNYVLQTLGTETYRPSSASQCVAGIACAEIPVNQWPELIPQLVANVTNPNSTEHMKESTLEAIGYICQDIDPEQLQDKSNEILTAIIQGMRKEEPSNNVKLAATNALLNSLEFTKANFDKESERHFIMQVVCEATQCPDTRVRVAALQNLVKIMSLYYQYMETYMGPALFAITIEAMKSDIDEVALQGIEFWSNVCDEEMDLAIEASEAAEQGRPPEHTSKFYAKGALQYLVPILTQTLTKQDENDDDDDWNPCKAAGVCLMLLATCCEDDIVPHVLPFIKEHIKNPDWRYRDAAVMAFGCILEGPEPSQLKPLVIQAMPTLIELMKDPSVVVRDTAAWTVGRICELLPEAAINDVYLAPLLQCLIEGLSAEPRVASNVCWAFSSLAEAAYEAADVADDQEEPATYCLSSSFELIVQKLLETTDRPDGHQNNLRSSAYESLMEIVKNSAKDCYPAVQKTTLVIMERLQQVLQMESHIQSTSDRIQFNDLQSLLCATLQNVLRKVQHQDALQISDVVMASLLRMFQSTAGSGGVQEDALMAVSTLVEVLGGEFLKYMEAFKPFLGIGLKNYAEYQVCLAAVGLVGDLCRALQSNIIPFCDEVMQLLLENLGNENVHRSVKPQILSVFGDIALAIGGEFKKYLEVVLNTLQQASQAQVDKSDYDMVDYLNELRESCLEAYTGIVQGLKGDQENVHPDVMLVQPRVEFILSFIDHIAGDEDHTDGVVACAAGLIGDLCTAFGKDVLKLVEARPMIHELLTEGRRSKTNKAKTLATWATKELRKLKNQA
UniProt P03372: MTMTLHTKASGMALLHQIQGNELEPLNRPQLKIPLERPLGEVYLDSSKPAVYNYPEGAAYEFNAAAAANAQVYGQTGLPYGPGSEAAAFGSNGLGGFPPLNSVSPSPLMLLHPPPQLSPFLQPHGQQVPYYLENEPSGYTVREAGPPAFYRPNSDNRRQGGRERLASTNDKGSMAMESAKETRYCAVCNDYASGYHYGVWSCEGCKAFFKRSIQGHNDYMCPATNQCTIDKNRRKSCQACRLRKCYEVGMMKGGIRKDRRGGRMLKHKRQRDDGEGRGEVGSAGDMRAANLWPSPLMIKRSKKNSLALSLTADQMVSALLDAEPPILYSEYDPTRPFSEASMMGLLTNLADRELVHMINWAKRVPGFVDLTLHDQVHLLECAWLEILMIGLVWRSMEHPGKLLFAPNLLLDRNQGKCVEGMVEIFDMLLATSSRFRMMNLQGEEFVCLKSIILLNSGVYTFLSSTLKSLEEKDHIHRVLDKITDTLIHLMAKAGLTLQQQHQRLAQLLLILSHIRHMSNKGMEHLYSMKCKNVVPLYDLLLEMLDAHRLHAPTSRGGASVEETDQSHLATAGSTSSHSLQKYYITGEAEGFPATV

Legend:
GST-importin-α1 (human) = GST-importin-α1 (human) (UniProt P52294); experiment: pull-down; as a1, in the absence of E2 only: 50 pmol GST fusion protein on Glutathione Sepharose 4B mixed with lysate of transfected HeLa cells; only the target purified
GST-importin-α4 (human) [1] = target: GST-importin-α4 (human) (UniProt O00629); experiment: pull-down; competition: GST-importin-α1 or GST-importin-α4 on glutathione Sepharose beads incubated with lysate of E2-treated (10 nM) HeLa cells expressing 3 × HA-ERα, washed, then incubated with different amounts of TNPO2; bound fraction blotted for HA; only the target purified
GST-importin-β1 (human) = GST-importin-β1 (human) (UniProt Q14974); experiment: pull-down; 50 pmol GST fusion protein on Glutathione Sepharose 4B mixed with lysate of transfected HeLa cells; cells untreated or treated with 10 nM E2; lysis buffer 20 mM HEPES/NaOH pH 7.3, 150 mM NaCl, 5 mM MgCl2, 0.05% Tween-20; western blot for HA; only the target purified
[2] = target: T1, GST-TNPO2 (Transportin-2) (human) (UniProt O14787); experiment: as above
T1 sequence: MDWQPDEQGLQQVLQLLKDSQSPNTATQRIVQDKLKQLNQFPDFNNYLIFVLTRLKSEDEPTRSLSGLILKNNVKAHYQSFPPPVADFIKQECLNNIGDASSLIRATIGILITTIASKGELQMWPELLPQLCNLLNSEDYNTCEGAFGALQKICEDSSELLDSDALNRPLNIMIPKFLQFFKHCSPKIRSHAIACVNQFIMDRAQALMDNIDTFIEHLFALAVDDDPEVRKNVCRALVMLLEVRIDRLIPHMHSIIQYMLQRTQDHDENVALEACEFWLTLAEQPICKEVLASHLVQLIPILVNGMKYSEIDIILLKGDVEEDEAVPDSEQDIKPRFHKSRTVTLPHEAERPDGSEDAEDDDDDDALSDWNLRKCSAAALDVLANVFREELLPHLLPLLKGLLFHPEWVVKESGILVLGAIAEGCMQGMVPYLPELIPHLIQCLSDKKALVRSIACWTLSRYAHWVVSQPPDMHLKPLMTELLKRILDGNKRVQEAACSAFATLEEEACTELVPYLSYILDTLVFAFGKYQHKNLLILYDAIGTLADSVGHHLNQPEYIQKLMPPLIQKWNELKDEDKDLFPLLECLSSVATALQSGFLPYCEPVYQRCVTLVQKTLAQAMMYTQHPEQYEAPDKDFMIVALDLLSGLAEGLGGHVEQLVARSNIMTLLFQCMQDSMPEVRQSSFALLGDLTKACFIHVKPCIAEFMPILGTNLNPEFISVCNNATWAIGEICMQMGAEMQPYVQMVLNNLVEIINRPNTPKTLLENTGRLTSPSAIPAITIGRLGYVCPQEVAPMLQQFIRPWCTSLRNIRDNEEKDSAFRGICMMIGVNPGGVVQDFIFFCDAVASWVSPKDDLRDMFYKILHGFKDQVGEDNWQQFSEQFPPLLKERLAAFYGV

GST-importin-α4 (human) [3] = target: GST-importin-α4 (human) (UniProt O00629); experiment: as above
[4] = target: T1, GST-TNPO2 (Transportin-2) (human); experiment: pull-down; recombinant GST-TNPO2 with recombinant 3 × Flag-importin-α1 or 3 × Flag-importin-α4 (Supplementary Fig. 6); both purified

binding [2]	binding [4]	Substance	other results
binds		3 × HA-ERα (oestrogen receptor-α, wild type) (from UniProt P03372 1-595)	binding (GST-importin-α1 (human)): binds weakly; binding (GST-importin-α4 (human) [1]): binds; binding (GST-importin-β1 (human)): binds; binding (GST-importin-α4 (human) [3]): binds
binds		3 × HA-ERαΔ2 (from UniProt P03372 181-595) (domain or fragment)	
	no binding	recombinant 3 × Flag-importin-α1 (from UniProt P52294 1-538)	
	no binding	recombinant 3 × Flag-importin-α4 (from UniProt O00629 1-521)	
